Results deposited as PubChem BioAssay AID1259405 (NCATS, 2018)
Test: 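Knock-downs that lift recombinant protein yield in hamster ovary cells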 (primary screen). Cells: Chinese hamster CHO-K1 ovary cells with stable secreted eGFP expression. Knock-down reagent: single siRNA against mouse genes, 0.8 pmol siRNA per well (2 µl of 400 nM stock). Time to read-out: 3 days. Detection: 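Per-well intracellular GFP measured by laser scanning cytometry, plus viability from ATP luminescence, each relative to plate median of non-targeting control wells, in %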. Direction: GFP, % of control: higher = more GFP per well, higher productivity; viability (ATP), % of control: higher = more viable cells (more ATP). Hit rule: 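a knock-down is called active if GFP reaches 120% or more of non-targeting control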.
Here is a random part of about 50,000 deposited reagents. About 4,000 of all reagents (8%) count as active. 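Mouse siRNA library applied to hamster cells; one well for each siRNA.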 Entries without a mark were called inactive. The numbers tell different reagents against one gene apart. No sequences are given here.

no.	target gene	reagent	GFP, % of control	viability (ATP), % of control
1	1110038F14Rik (GeneID 117171)	1	103	87.7
2	1110038F14Rik (GeneID 117171)	2	48.5	46.8
3	1110038F14Rik (GeneID 117171)	3	20.7	27.1
4	Tyrobp (GeneID 22177)	1	189 (active)	80.3
5	Tyrobp (GeneID 22177)	2	69	58.3
6	Tyrobp (GeneID 22177)	3	63.1	78.1
7	Or4a72 (GeneID 258784)	1	100	117
8	Or4a72 (GeneID 258784)	2	48.7	82.6
9	Or4a72 (GeneID 258784)	3	60.1	112
10	Ube2a (GeneID 22209)	1	84	80
11	Ube2a (GeneID 22209)	2	68.8	103
12	Ube2a (GeneID 22209)	3	91.2	109
13	Espl1 (GeneID 105988)	1	94.5	60.5
14	Espl1 (GeneID 105988)	2	91.1	47.9
15	Rdh9 (GeneID 103142)	1	67.6	47.5
16	Rdh9 (GeneID 103142)	2	64.9	89.8
17	Rdh9 (GeneID 103142)	3	28	41.3
18	Dgkq (GeneID 110524)	1	77.5	70.8
19	Rtp3 (GeneID 235636)	1	48.1	49.6
20	Rtp3 (GeneID 235636)	2	100	111
21	Rtp3 (GeneID 235636)	3	124 (active)	106
22	Ahi1 (GeneID 52906)	1	99.2	67.8
23	Ahi1 (GeneID 52906)	2	87.8	80.8
24	Ahi1 (GeneID 52906)	3	60	78.4
25	Tubd1 (GeneID 56427)	1	71.6	102
26	Tubd1 (GeneID 56427)	2	0.185	17.7
27	Clps (GeneID 109791)	1	48	54.5
28	Clps (GeneID 109791)	2	108	88.5
29	Slc22a13 (GeneID 102570)	1	129 (active)	108
30	Slc22a13 (GeneID 102570)	2	114	73.7
31	Slc22a13 (GeneID 102570)	3	202 (active)	112
32	S1pr2 (GeneID 14739)	1	69.2	45.1
33	S1pr2 (GeneID 14739)	2	83.8	78.4
34	S1pr2 (GeneID 14739)	3	87.7	85.8
35	Pabpc6 (GeneID 67543)	1	98.8	56.8
36	Pabpc6 (GeneID 67543)	2	104	68.3
37	Pabpc6 (GeneID 67543)	3	121 (active)	110
38	Or52b1 (GeneID 56860)	1	87.6	69.2
39	Or52b1 (GeneID 56860)	2	29.1	49.6
40	Or52b1 (GeneID 56860)	3	53.6	96.9
41	Tmc1 (GeneID 13409)	1	97.1	67.4
42	Tmc1 (GeneID 13409)	2	106	121
43	Tmc1 (GeneID 13409)	3	63.3	76.5
44	Angptl1 (GeneID 72713)	1	55.4	41
45	Angptl1 (GeneID 72713)	2	111	124
46	Alox12 (GeneID 11684)	1	91.8	107
47	Alox12 (GeneID 11684)	2	101	103
48	Alox12 (GeneID 11684)	3	37.5	36.1
49	Snf8 (GeneID 27681)	1	69.4	72.6
50	Snf8 (GeneID 27681)	2	81.3	92.6
51	Snf8 (GeneID 27681)	3	101	97.8
52	Svs5 (GeneID 20944)	1	89.2	79.5
53	Svs5 (GeneID 20944)	2	68.2	82.7
54	Svs5 (GeneID 20944)	3	127 (active)	100
55	Rrh (GeneID 20132)	1	112	88.5
56	Rrh (GeneID 20132)	2	52.3	71.8
57	Rrh (GeneID 20132)	3	55.4	71.7
58	Paqr8 (GeneID 74229)	1	80.5	65.2
59	Paqr8 (GeneID 74229)	2	65.6	72.7
60	Paqr8 (GeneID 74229)	3	58.5	83.1
61	Ppp1r14a (GeneID 68458)	1	106	89.5
62	Ppp1r14a (GeneID 68458)	2	88.6	60.3
63	Ppp1r14a (GeneID 68458)	3	75.4	73.6
64	B230354K17Rik (GeneID 105246278)	1	101	75.6
65	B230354K17Rik (GeneID 105246278)	2	50.8	54.1
66	B230354K17Rik (GeneID 105246278)	3	106	102
67	Cops7a (GeneID 26894)	1	74.1	102
68	Cops7a (GeneID 26894)	2	44.4	58.8
69	Cops7a (GeneID 26894)	3	107	117
70	Dnajb13 (GeneID 69387)	1	34	49.4
71	Dnajb13 (GeneID 69387)	2	74.9	86.1
72	Dnajb13 (GeneID 69387)	3	80.4	138
73	Klf10 (GeneID 21847)	1	42.6	37.1
74	Klf10 (GeneID 21847)	2	96.2	99.2
75	Klf10 (GeneID 21847)	3	73.4	75.9
76	Rchy1 (GeneID 68098)	1	128 (active)	98.3
77	Rchy1 (GeneID 68098)	2	44.3	54
78	Rchy1 (GeneID 68098)	3	59.1	63.1
79	Slc9c1 (GeneID 208169)	1	98.9	75.7
80	Slc9c1 (GeneID 208169)	2	80.8	53.2
81	Slc9c1 (GeneID 208169)	3	91.9	82.7
82	Ifne (GeneID 230405)	1	50.3	54.8
83	Ifne (GeneID 230405)	2	92.2	43.5
84	Ifne (GeneID 230405)	3	67.7	64.6

Laid out differently: results already given
target gene,reagent,"GFP, % of control","viability (ATP), % of control"
Alox12 (GeneID 11684),3,37.5,36.1
Snf8 (GeneID 27681),1,69.4,72.6
Snf8 (GeneID 27681),2,81.3,92.6
Snf8 (GeneID 27681),3,101,97.8
Svs5 (GeneID 20944),1,89.2,79.5
Svs5 (GeneID 20944),2,68.2,82.7
Svs5 (GeneID 20944),3,127 (active),100
Rrh (GeneID 20132),1,112,88.5
Rrh (GeneID 20132),2,52.3,71.8
Rrh (GeneID 20132),3,55.4,71.7
Paqr8 (GeneID 74229),1,80.5,65.2
Paqr8 (GeneID 74229),2,65.6,72.7
Paqr8 (GeneID 74229),3,58.5,83.1
